Test results: PubChem BioAssay AID504444 (National Center for Advancing Translational Sciences (NCATS), 2011)
Out of some 360,000 compounds screened, about 7,500 (2.1%) were called active. Inconclusive results, whose numbers are uncertain, are shown with a selection of clear calls. Calls follow the shape of the dose curve; as a rule, active = well fitted inhibition curve with a large enough effect; inconclusive = small, poorly fitted or top-dose-only effect, or effect the other way; inactive = flat fitted curve, though single readings scatter. Potencies of inconclusive entries are doubtful fits and often do not repeat.

Experiment: Nrf2 qHTS screen for inhibitors; also: nearly all actives have a fitted effect of over 60% in size
Settings: A549 ARE-Fluc reporter, luciferase luminescence, 18-24 h; series mostly up to 46 µM
In short: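 Cells were seeded and rested 2 h, then exposed to compounds for 18-24 h. CellTiter-Fluor was read first as a viability measure. BugLite was added 15 min before the final luminescent read of ARE-luciferase activity in A549 cells.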
Potency is read from the fitted curve at half-maximal effect.

Structure (SMILES) | Potency
CC(C)(C)c1nnc(NC(=S)Nc2ccccc2)s1 | inconclusive: 11.6 µM [activator, partial curve]
Cc1ccc(CN2CCSc3ccc(C(=O)N4CCN(c5ncccn5)CC4)cc32)cc1 | inconclusive: 29.1 µM [falling, single point]
CCOC(=O)c1cnc2ccc(C)cc2c1N(C)Cc1ccccc1 | inconclusive: 3.26 µM [activator, partial curve, poor fit]
COC(=O)CNC(c1ccccc1)c1cc(Br)ccc1NC(=O)CNC(=O)OCc1ccccc1 (stereo not drawn) | inactive
Cc1cccc(N2CCN(C(c3ccccc3)c3nnnn3C(C)(C)C)CC2)c1C (stereo not drawn) | inconclusive: 9.2 µM [falling, partial curve, poor fit]
COc1ccc(CN2CCN(C(=O)C3CCC(CNS(=O)(=O)c4ccccc4)CC3)CC2)c(OC)c1OC (stereo not drawn) | inconclusive: 13 µM [activator, partial curve]
COc1ccc2nc(Nc3nc4cc5c(cc4s3)OCO5)sc2c1 | inactive
C/C(=N\NC(=O)c1ccc(CN(C)S(=O)(=O)c2ccc(C)cc2)cc1)c1ccc(OC(F)F)cc1 | active: 5.17 µM
COc1ccc(-c2cn3nc(N4CCCC(C(=O)Nc5ccc(C)c(C)c5)C4)sc3n2)cc1 (stereo not drawn) | inactive
CCC(=O)Nc1cc2c(C)cc(=O)oc2cc1C | inactive
COc1cc2[nH]c(=S)nc(NCc3cccs3)c2cc1OC | inconclusive: 23.1 µM [falling, partial curve, poor fit]
Cc1nnc(SCc2ccc(Cl)cc2)c2cc3occc3n12 | inconclusive: 25.9 µM [falling, single point]
Cc1ccc2[nH]c3c(=O)n(CCN4CCOCC4)cnc3c2c1 | inconclusive: 14.6 µM [activator, partial curve, poor fit]
CC1C(=O)N2CCCc3cc(NC(=O)C(=O)NCCc4ccc(F)cc4)cc1c32 (stereo not drawn) | inconclusive: 14.6 µM [falling, partial curve]
O=C1C(Nc2ccc(O)cc2)=C/C(=N/S(=O)(=O)c2cccs2)c2ccccc21 | inconclusive: 23.1 µM [falling, single point]
Cc1ccc(C)c(OCCC(=O)NCCc2ccc(Cl)cc2)c1 | inconclusive: 29.1 µM [falling, partial curve, poor fit]
Cc1ccc(S(=O)(=O)NCCC(=O)N2CCC(Cc3ccccc3)CC2)cc1 | inconclusive: 11.6 µM [falling, partial curve, poor fit]
CCOC(=O)C1(C)Oc2ccccc2C(c2ccc(OC)cc2)=C1C(=O)OC (stereo not drawn) | inconclusive: 18.4 µM [falling, single point]
O=C(COc1ccccc1)Nc1cc(Cl)ccc1Cl | inconclusive: 3.26 µM [activator, full curve]
CCn1c(N2CCN(S(=O)(=O)c3ccc(F)cc3)CC2)nc2ccccc21 | inconclusive: 23.1 µM [falling, partial curve]
CCOC(=O)C/C(=N\Nc1ncnc2ccccc12)c1ccccc1 | inconclusive: 6.51 µM [activator, partial curve]
O=C(Cn1c(=S)nc2ccccn21)N1CCc2ccccc2C1 | inconclusive: 9.2 µM [activator, partial curve]
Cc1nc(CS(=O)(=O)c2ccccc2)cc(N2CCN(c3ccccc3F)CC2)n1 | active: 20.6 µM

Reformatted as tab-separated lines: entries from further up
Structure (SMILES)	Potency
Cc1cccc(N2CCN(C(c3ccccc3)c3nnnn3C(C)(C)C)CC2)c1C (stereo not drawn)	inconclusive: 9.2 µM [falling, partial curve, poor fit]
COc1ccc(CN2CCN(C(=O)C3CCC(CNS(=O)(=O)c4ccccc4)CC3)CC2)c(OC)c1OC (stereo not drawn)	inconclusive: 13 µM [activator, partial curve]

(cont.)

Structure (SMILES) | Potency
Cc1cc2nc(-c3ccc(SCC(=O)Nc4ccc5c(c4)OCCO5)nc3)[nH]c2cc1C | inconclusive: 4.61 µM [activator, partial curve]
COc1ccc(C(=O)CNc2ccc(C)cc2C)cc1 | inconclusive: 20.6 µM [activator, partial curve]
O=C(C1CCCN(S(=O)(=O)c2cccc3nsnc23)C1)N1CCc2ccccc21 (stereo not drawn) | inconclusive: 16.4 µM [falling, partial curve]
Cc1nn(C)c(Cl)c1NC(=O)OCc1ccc(F)cc1 | inconclusive: 32.6 µM [falling, single point]
O=C(NCc1cccc(Cl)c1)c1cc(COc2ccc3ncccc3c2)on1 | active: 10.3 µM
C[n+]1ccccc1/C=C1\Sc2ccccc2N1CCO | active: 16.4 µM
O=C(CSc1nc2ccccc2[nH]1)N1CCN(c2ccccc2)CC1 | inconclusive: 1.84 µM [falling, partial curve, poor fit]
Clc1ccc(-c2cc(-c3ccccc3)on2)cc1 | inconclusive: 3.66 µM [activator, full curve]
Cc1[nH]n(-c2cccc(Cl)c2)c(=O)c1C=NCc1ccco1 | inconclusive: 2.31 µM [activator, full curve]
CC(Sc1nnc2c(n1)[nH]c1ccccc12)C(=O)N(C)C1CCCCC1 (stereo not drawn) | inconclusive: 18.4 µM [falling, single point]
CCN(CC)C1=NS(=O)(=O)c2cc([N+](=O)[O-])ccc21 | inconclusive: 23.1 µM [falling, single point]
O=C(/C=C/c1ccc(Cl)cc1)Nc1ccc(CN2CCOCC2)cc1 | active: 20.6 µM
O=C(CSc1nnc(CNC(=O)c2cccs2)o1)Nc1ccc(F)cc1F | inactive
O=C(c1cccs1)N1N=C(c2ccccc2)CC1c1ccccc1O (stereo not drawn) | inconclusive: 29.1 µM [activator, single point]
COc1ccc(/C=C(/C(=O)Nc2ccccc2C(=O)NC(C)C)c2ccccc2)cc1 | inconclusive: 29.1 µM [falling, single point]
COc1cccc(-c2nn(C)c3sc(C(=O)NCCc4ccc(Cl)cc4)cc23)c1 | inconclusive: 29.1 µM [falling, single point]
O=C(Nc1cccn(Cc2ccccc2Cl)c1=O)NC1CCCCC1 | inconclusive: 29.1 µM [falling, single point]
Cc1ccc(OCc2nnc(SCC(=O)Nc3sc(C)c(C)c3C#N)n2C)cc1 | inconclusive: 11.6 µM [falling, partial curve]
N#Cc1nc(/C=C/c2ccc(F)cc2)oc1N1CCN(c2ccccc2)CC1 | inactive
CC(Cl)C(=O)Nc1cc(C(F)(F)F)ccc1N1CCOCC1 (stereo not drawn) | inconclusive: 6.51 µM [activator, single point]
COC(=O)Cc1[nH]nc2c1C(c1cccc(OC)c1OC)C(C#N)=C(N)O2 (stereo not drawn) | inactive
C=CCn1c(SCC(=O)c2c(N)n(C)c(=O)n(C)c2=O)nnc1-c1ccoc1C | inconclusive: 3.66 µM [falling, full curve]
C(=NOCCc1ccccc1)c1cccnc1 | inconclusive: 6.51 µM [activator, partial curve]

Structure (SMILES) | Potency
COC(=O)c1c(NC(=O)CSc2ccccc2N)sc(C)c1C | inconclusive: 29.1 µM [falling, single point]
O=C(Nc1ccc2c(c1)OCCO2)C(=O)c1c[nH]c2ccccc12 | inconclusive: 0.259 µM [activator, full curve, poor fit]
COc1ccc(-c2nnc(SCC(=O)Nc3sc4c(c3C#N)CCC4)n2CC2CCCO2)cc1 (stereo not drawn) | inconclusive: 32.6 µM [falling, single point]
C/C(=N\NC(=O)C1COc2ccccc2O1)c1ccccn1 (stereo not drawn) | active: 9.2 µM
COc1cc(SC#N)ccc1N=Cc1c(C)[nH]n(-c2cccc3ccccc23)c1=O | inactive
Cc1noc(Cn2c(=O)c3ccccc3n(CC(=O)Nc3cccc(Cl)c3C)c2=O)n1 | inactive
COC(=O)c1ccc(NS(=O)(=O)c2cc3c4c(c2)CCC(=O)N4CCC3)cc1 | active: 23.1 µM
COc1cccc(N/C(C)=C/C(=O)c2ccc(Br)cc2)c1 | inconclusive: 16.4 µM [activator, partial curve]
O=C(Nc1cc2c(oc1=O)CCCC2=O)c1ccc(Cl)cc1 | inconclusive: 13 µM [activator, partial curve]
CSc1ccccc1C(=O)NCc1ccc2c(c1)OCO2 | inconclusive: 2.06 µM [activator, partial curve, poor fit]
C=CCn1c(C)cc(C(=O)CSc2nc3ccccc3o2)c1C | inconclusive: 14.6 µM [falling, single point]
Cc1cc(NCCN2CCOCC2)n2c(nc3ccccc32)c1C#N | inactive
COc1cc(CN2CCN(CCc3ccccc3)C(CCO)C2)cc(OC)c1 (stereo not drawn) | inactive
CC(C)C[C@H]1CN=C(Nc2ccccc2)N1CCCC1CCCCC1 | inconclusive: 20.6 µM [activator, single point]
CC(=O)c1ccc(NC(=O)C2CCCN(c3ncnc4c3nc3n4CCCCC3)C2)cc1 (stereo not drawn) | inactive
N#CCCNS(=O)(=O)c1ccc(C(=O)OCC2CCCCC2)cc1 | inconclusive: 20.6 µM [activator, single point]
COc1ccc(OC)c(C2C(C#N)=C(N)Oc3cc(N)ccc32)c1 (stereo not drawn) | inconclusive: 20.6 µM [falling, partial curve, poor fit]
CC12CCC(=O)N1C(C(=O)NCCc1ccccc1)CS2 (stereo not drawn) | inconclusive: 23.1 µM [activator, single point]
Cc1ccc(SC2CCN(C(=O)C3CCC(=O)N(C4CC4)C3)CC2)cc1 (stereo not drawn) | inconclusive: 29.1 µM [falling, single point]
Cc1c(Cl)cccc1NC(=S)C(=C([O-])c1ccc(Cl)s1)[n+]1ccccc1 | inactive
C/C(N)=C(/C#N)C(=O)CSc1nc2ccccc2c(=O)n1Cc1ccc(F)cc1 | inconclusive: 29.1 µM [falling, single point]
O=C(CCCCCNc1nc(=S)[nH]c2ccccc12)NCCC1=CCCCC1 | inconclusive: 23.1 µM [falling, partial curve, poor fit]

Entries above with a tert-butyl group (two):
Structure (SMILES) | Potency
CC(C)(C)c1nnc(NC(=S)Nc2ccccc2)s1 | inconclusive: 11.6 µM [activator, partial curve]
Cc1cccc(N2CCN(C(c3ccccc3)c3nnnn3C(C)(C)C)CC2)c1C (stereo not drawn) | inconclusive: 9.2 µM [falling, partial curve, poor fit]
